The record followed here is paper PMC7819943, “Rice protein-binding microarrays: a tool to detect cis-acting elements near promoter regions in rice”.

By UniProt entry, the sequences of proteins in these tests, tags left out.
UniProt Q0JBA9, entry or part of it: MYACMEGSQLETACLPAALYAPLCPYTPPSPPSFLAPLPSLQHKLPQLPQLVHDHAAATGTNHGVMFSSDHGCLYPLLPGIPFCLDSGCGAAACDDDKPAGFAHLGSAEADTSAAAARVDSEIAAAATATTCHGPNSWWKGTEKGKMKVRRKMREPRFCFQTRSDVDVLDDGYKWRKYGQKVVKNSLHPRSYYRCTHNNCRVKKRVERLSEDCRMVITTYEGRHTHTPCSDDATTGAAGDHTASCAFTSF

The list shows a part of the results.

The target in the assay is OsWRKY34 (Oryza sativa, UniProt Q0JBA9 1-250). Briefly: protein-binding microarray (RPBM); PBS, 2% BSA, 51.3 ng/ul salmon testes DNA, 50 uM zinc acetate, 200 nM TF, 25 C, 1 h; high values mean tight binding. Conditions: protein: recombinant; tags: N-terminal polyhistidine and DsRed monomer fusion (pET32a); label: CyDye5-dUTP incorporated in the synthesized complementary strand; 3' TTTTT single-stranded linker to array surface; dsDNA, one strand shown. Summed up:
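The binding signal is fluorescence intensity per array feature (arbitrary units). Readings came from an Axon 4000B scanner after a washed, 2% BSA-blocked, double-stranded custom Agilent array had been incubated for 1 h at 25 °C with 200 nM protein and 50 µM zinc acetate. The protein was a Ni–NTA-purified transcription factor fused N-terminally to polyhistidine and DsRed, expressed in E. coli BL21-CodonPlus.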
For “TTGTACCCATTGCTTTGTTCAGTTGTCACTCACTCCTACTCGGAGTCACCTAGTGCAG”, the binding signal is 12000 fluorescence intensity (a.u.).

As for “ACCCAGCGGCAACCGCTACTTCCTCCTGCTCGTCGACGACCGGAGTCACCTAGTGCAG”, the binding signal is 9240 fluorescence intensity (a.u.).

On to “ATCATTTTCACAATGTAAGTCATTCTAGCATTTTTCATATCGGAGTCACCTAGTGCAG”, for which the binding signal is 8190 fluorescence intensity (a.u.).

Turning to “TAGTAGCTGTTGTTCATGTACAGTTTGGTTGTTCATTGGTCGGAGTCACCTAGTGCAG”, the binding signal was 10700 fluorescence intensity (a.u.).

Take “GAGACTTTGCCCTTTTATTTTCTTTCTTTTTTTTTTCCTTCGGAGTCACCTAGTGCAG”: the binding signal is 9360 fluorescence intensity (a.u.).

Consider “ACACACAAAATTACACAGCATCTGCCTTTATTTTTCTTTTCGGAGTCACCTAGTGCAG”, for which the binding signal is 9230 fluorescence intensity (a.u.).

On to “ATTTATTCTCGTTGCTACTTCTTTGCTGATCAAGATTCGCCGGAGTCACCTAGTGCAG”, for which the binding signal was 8680 fluorescence intensity (a.u.).

For “TTTTTGGGCTTACACTGTCCCTTTTTTATCGCTGCGTCCACGGAGTCACCTAGTGCAG”, the binding signal was 11500 fluorescence intensity (a.u.).

With “AGGGGCGGAACTGGGTAGGCAGGGTGGGTTATATTTGAGCCGGAGTCACCTAGTGCAG”, the binding signal was 10500 fluorescence intensity (a.u.).

“TGCCTTCTCGGGCTCATGGTGGAGGGGCAGGGGCTGCCTTCGGAGTCACCTAGTGCAG”: the binding signal is 9700 fluorescence intensity (a.u.).

For the sequence “TACTCGATCTCTCTCTGTTTCATATTATAAACCGTTTAAACGGAGTCACCTAGTGCAG”, the binding signal is 8520 fluorescence intensity (a.u.).

Regarding “CACACACACCCTGTCGAGCGAATATGCATGTCTTCTCAAGCGGAGTCACCTAGTGCAG”, the binding signal is 8960 fluorescence intensity (a.u.).

Consider “ATATGACTATTCAGGTGTCCATAATGTTTCCTGTTTGTTTCGGAGTCACCTAGTGCAG”, for which the binding signal is 12600 fluorescence intensity (a.u.).

“TTGCAGCAAATTTGTTATAACATGCGCTCTCCTGTACTACCGGAGTCACCTAGTGCAG”: the binding signal is 9100 fluorescence intensity (a.u.).

As for “GTAATTAGCTAATCAATCTTTTCGGCTGTGCTTAATTAACCGGAGTCACCTAGTGCAG”, the binding signal is 9050 fluorescence intensity (a.u.).

Regarding “GCTGGTCCCGTTTCTCACTTCGCAACACTAGGCTTTTTGCCGGAGTCACCTAGTGCAG”, the binding signal is 11400 fluorescence intensity (a.u.).

On to “GCGGATCATCCTCCCCTGCCGCGCGTGGGTGTTGTCTTCTCGGAGTCACCTAGTGCAG”, for which the binding signal is 8430 fluorescence intensity (a.u.).

For “TTCCTCATTTATTCACTTGCCATGTCATTTTTTGTTCTAGCGGAGTCACCTAGTGCAG”, the binding signal was 13300 fluorescence intensity (a.u.).

“TTGCGTCTGCGTTTTTTGGATTTCTGGGAGACATTCATTTCGGAGTCACCTAGTGCAG”: the binding signal was 8240 fluorescence intensity (a.u.).

Turning to “GAGCTGCTGCTGTCTTTGGTGGGGTTTATATAGGTTTGCTCGGAGTCACCTAGTGCAG”, the binding signal was 9480 fluorescence intensity (a.u.).

As to “ACACGTGTCCAGTCGCGCGGGGAGGAGGGCATGCGACTGGCGGAGTCACCTAGTGCAG”, the binding signal is 8510 fluorescence intensity (a.u.).

As for “CCAGTTCCTATCCAATCTCTGGTCTTCCGGCAGGTCCCCGCGGAGTCACCTAGTGCAG”, the binding signal was 9080 fluorescence intensity (a.u.).

As for “GAGCCCTGGGTGCAGCAGCCTTGGAAATTTCTCTGCATTTCGGAGTCACCTAGTGCAG”, the binding signal was 8170 fluorescence intensity (a.u.).

For “GTTGTATTGGAATTCTTCAGTTCTCAGCTTGGCTTTACATCGGAGTCACCTAGTGCAG”, the binding signal is 8450 fluorescence intensity (a.u.).

In the case of “ACAACTGACTTACCCTTTCTGACTTGCAGATCAATTTGTCCGGAGTCACCTAGTGCAG”, the binding signal is 9050 fluorescence intensity (a.u.).

Regarding “AGCACTTCTTTCTATGCTTTTTGCAAGCATTCGTGTATCTCGGAGTCACCTAGTGCAG”, the binding signal is 10700 fluorescence intensity (a.u.).

As for “GCGCAAACGCTCGAATTTTTGGTTTTGATCCATATGCATACGGAGTCACCTAGTGCAG”, the binding signal is 8580 fluorescence intensity (a.u.).

With “CTTCTCCTTGCTTCTCCGTAACCTCGCGCTTTCTTGGCCGCGGAGTCACCTAGTGCAG”, the binding signal is 8890 fluorescence intensity (a.u.).

On to “ACGGCGAGACGGTTTGCGGCGGCGGCGGTGGGGTTGGGATCGGAGTCACCTAGTGCAG”, for which the binding signal is 10600 fluorescence intensity (a.u.).

As for “TACCGTTGACTTTGGACAAAATTTACTCAAACAGTAGCAACGGAGTCACCTAGTGCAG”, the binding signal was 12700 fluorescence intensity (a.u.).

For the sequence “ACATCTGTACAAACAAGCCACGCCGTCTCCTGTTGGAATTCGGAGTCACCTAGTGCAG”, the binding signal is 8730 fluorescence intensity (a.u.).

In the case of “AATTTCGGTCTCGGTCTTCGGTCTTTCGGTTTTTTCGGTCCGGAGTCACCTAGTGCAG”, the binding signal was 11800 fluorescence intensity (a.u.).

“GATGGCGTACCAAAGTACTGGTAAAAACATCTTCAGTTTTCGGAGTCACCTAGTGCAG”: the binding signal is 22300 fluorescence intensity (a.u.).

As to “AATTTCTTGCTTTACTGCCTATTGTGCTTGTATGGTTCTGCGGAGTCACCTAGTGCAG”, the binding signal is 10000 fluorescence intensity (a.u.).

On to “TACTTCTGACCACTCATACTTAGGTGTACATGCAACGAGGCGGAGTCACCTAGTGCAG”, for which the binding signal was 8640 fluorescence intensity (a.u.).

For the sequence “TTCCTTATCACATGGGCTCTACATGCCATTGTCACATAAACGGAGTCACCTAGTGCAG”, the binding signal was 9240 fluorescence intensity (a.u.).

Regarding “TGTAGTACTCCATTTCTCAGCAGTCTTTGTTCCTCATAGTCGGAGTCACCTAGTGCAG”, the binding signal was 8880 fluorescence intensity (a.u.).

As to “GAATCAGGACTTAGCCATCTCACATTTCTCCTGATCTTCACGGAGTCACCTAGTGCAG”, the binding signal was 14500 fluorescence intensity (a.u.).

In the case of “TTGTTACGAGAGTCCATAGCTTATCCTTATTTCTAACAATCGGAGTCACCTAGTGCAG”, the binding signal was 8810 fluorescence intensity (a.u.).

As for “TCCATGCATTCGTTACACTCGGTCTGTTTTCCTTCGCTCACGGAGTCACCTAGTGCAG”, the binding signal was 11500 fluorescence intensity (a.u.).

In the case of “CCGTATATTGGTCAACATTGGTTGAATCTATCATAACCATCGGAGTCACCTAGTGCAG”, the binding signal is 11900 fluorescence intensity (a.u.).

“TTCGATGACGCGTGCCATTTTTCCTGCAAAGTGTCTTTTTCGGAGTCACCTAGTGCAG”: the binding signal was 9330 fluorescence intensity (a.u.).
